# Cleaved PARP after 72 h of treatment

Data from the primary screen of doi:10.1371/journal.pone.0140310, rounded.

First drug in all entries: veliparib, 7 µM, C[C@]1(c2nc3c(C(N)=O)cccc3[nH]2)CCCN1

Compounds and concentrations:
vorinostat (0.4 µM): O=C(CCCCCCC(=O)Nc1ccccc1)NO
ENMD-2076 (0.2 µM): Cc1cc(Nc2cc(N3CCN(C)CC3)nc(/C=C/c3ccccc3)n2)n[nH]1
dorsomorphin (2 µM): c1cc(-c2cnn3cc(-c4ccc(OCCN5CCCCC5)cc4)cnc23)ccn1
KU-0063794 (0.1 µM): COc1ccc(-c2ccc3c(N4CCOCC4)nc(N4C[C@@H](C)O[C@@H](C)C4)nc3n2)cc1CO
GW441756 (2 µM): Cn1cc(/C=C2\C(=O)Nc3cccnc32)c2ccccc21
vatalanib (10 µM): Clc1ccc(Nc2nnc(Cc3ccncc3)c3ccccc23)cc1
SNS-314 (0.004 µM): O=C(Nc1cccc(Cl)c1)Nc1ncc(CCNc2ncnc3ccsc23)s1
CX-4945 (2 µM): O=C(O)c1ccc2c(c1)nc(Nc1cccc(Cl)c1)c1ccncc12
lenalidomide (5 µM): Nc1cccc2c1CN(C1CCC(=O)NC1=O)C2=O (stereo not given)
decitabine (0.5 µM): Nc1ncn([C@H]2C[C@H](O)[C@@H](CO)O2)c(=O)n1
MK-2206 (2 µM): NC1(c2ccc(-c3nc4ccn5c(=O)[nH]nc5c4cc3-c3ccccc3)cc2)CCC1
PF-562271 (0.4 µM): CN(c1ncccc1CNc1nc(Nc2ccc3c(c2)CC(=O)N3)ncc1C(F)(F)F)S(C)(=O)=O
L-779450 (1 µM): Oc1cc(-c2nc(-c3ccccc3)[nH]c2-c2ccncc2)ccc1Cl
cediranib (2 µM): COc1cc2c(Oc3ccc4[nH]c(C)cc4c3F)ncnc2cc1OCCCN1CCCC1
selumetinib (0.075 µM): Cn1cnc2c(F)c(Nc3ccc(Br)cc3Cl)c(C(=O)NOCCO)cc21
lapatinib (4 µM): CS(=O)(=O)CCNCc1ccc(-c2ccc3ncnc(Nc4ccc(OCc5cccc(F)c5)c(Cl)c4)c3c2)o1
tozasertib (0.03 µM): Cc1cc(Nc2cc(N3CCN(C)CC3)nc(Sc3ccc(NC(=O)C4CC4)cc3)n2)n[nH]1
bexarotene (10 µM): C=C(c1ccc(C(=O)O)cc1)c1cc2c(cc1C)C(C)(C)CCC2(C)C
IMD-0354 (0.08 µM): O=C(Nc1cc(C(F)(F)F)cc(C(F)(F)F)c1)c1cc(Cl)ccc1O
AZD7762 (0.1 µM): NC(=O)Nc1cc(-c2cccc(F)c2)sc1C(=O)N[C@H]1CCCNC1
nilotinib (1 µM): Cc1cn(-c2cc(NC(=O)c3ccc(C)c(Nc4nccc(-c5cccnc5)n4)c3)cc(C(F)(F)F)c2)cn1
CP-690550 (5 µM): C[C@@H]1CCN(C(=O)CC#N)C[C@@H]1N(C)c1ncnc2[nH]ccc12
vismodegib (5 µM): CS(=O)(=O)c1ccc(C(=O)Nc2ccc(Cl)c(-c3ccccn3)c2)c(Cl)c1
AS-252424 (5 µM): O=C1NC(=O)/C(=C/c2ccc(-c3ccc(F)cc3O)o2)S1
MK-1775 (0.1 µM): C=CCn1c(=O)c2cnc(Nc3ccc(N4CCN(C)CC4)cc3)nc2n1-c1cccc(C(C)(C)O)n1
BI-D1870 (1 µM): CC(C)CCN1c2nc(Nc3cc(F)c(O)c(F)c3)ncc2N(C)C(=O)C1C (stereo not given)
GW9662 (10 µM): O=C(Nc1ccccc1)c1cc([N+](=O)[O-])ccc1Cl
perifosine (2 µM): CCCCCCCCCCCCCCCCCCOP(=O)([O-])OC1CC[N+](C)(C)CC1
GSK650394 (0.8 µM): O=C(O)c1ccc(-c2c[nH]c3ncc(-c4ccccc4)cc23)cc1C1CCCC1
CHIR-265 (0.4 µM): Cn1c(Nc2ccc(C(F)(F)F)cc2)nc2cc(Oc3ccnc(-c4ncc(C(F)(F)F)[nH]4)c3)ccc21
LFM-A13 (10 µM): C/C(O)=C(\C#N)C(=O)Nc1cc(Br)ccc1Br
SNS-032 (0.05 µM): CC(C)(C)c1cnc(CSc2cnc(NC(=O)C3CCNCC3)s2)o1
tamatinib (2 µM): COc1cc(Nc2ncc(F)c(Nc3ccc4c(n3)NC(=O)C(C)(C)O4)n2)cc(OC)c1OC
dasatinib (0.02 µM): Cc1nc(Nc2ncc(C(=O)Nc3c(C)cccc3Cl)s2)cc(N2CCN(CCO)CC2)n1
U73122 (2 µM): COc1ccc2c(c1)CCC1C2CCC2(C)C(NCCCCCCN3C(=O)C=CC3=O)CCC12 (stereo not given)
OSI-906 (2 µM): C[C@]1(O)C[C@@H](c2nc(-c3ccc4ccc(-c5ccccc5)nc4c3)c3c(N)nccn32)C1
embelin (6 µM): CCCCCCCCCCCC1=C(O)C(=O)C=C(O)C1=O

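The test systems are human melanoma cell lines, treated with a pair of drugs for 72 h and then stained and imaged. Each value is the cleaved-PARP-positive fraction of nuclei relative to DMSO-treated wells, in %, so that 100 equals the control and higher values mean more apoptosis. Concentrations were fixed for each drug; these are the higher of two levels. The file gives one value for each pair and line, without errors, so small differences may be noise. The marker varies much from line to line, for technical or biological reasons.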
This is part of the screen, not chosen by result.
An entry leaves out what has no value listed here.
A dash means that no value is listed here.

With lapatinib the screen read COLO 792: 115; RPMI-7951: 102.
With vorinostat the screen read LB2518-MEL: 65.8; COLO 792: 109; RPMI-7951: 81.7.
With IMD-0354 the screen read COLO 792: 128; RPMI-7951: 41.3.
With lenalidomide the screen read LB2518-MEL: 68.2; COLO 792: 110; RPMI-7951: 74.0.
With selumetinib the screen read LB2518-MEL: 248; COLO 792: 85.5; RPMI-7951: 69.7.
With bexarotene the screen read LB2518-MEL: 73.8; COLO 792: 98.3; RPMI-7951: 128.
With vatalanib the screen read LB2518-MEL: 185; COLO 792: 277; RPMI-7951: 74.6.
With ENMD-2076 the screen read LB2518-MEL: 92.4; COLO 792: 93.9; RPMI-7951: 99.2.
With KU-0063794 the screen read LB2518-MEL: 277; COLO 792: 116; 501mel: 64.1; RPMI-7951: 148.
With SNS-032 the screen read LB2518-MEL: 314; COLO 792: 210; RPMI-7951: 88.2.
With CX-4945 the screen read LB2518-MEL: 40.9; COLO 792: 163; RPMI-7951: 236.
With tozasertib the screen read LB2518-MEL: 381; COLO 792: 97.1; RPMI-7951: 172.
With cediranib the screen read COLO 792: 174; RPMI-7951: 153.
With embelin the screen read LB2518-MEL: 84.8; COLO 792: 231; 501mel: 337; RPMI-7951: 77.4.
With vismodegib the screen read LB2518-MEL: 89.7; COLO 792: 63.8; RPMI-7951: 158.
With dasatinib the screen read COLO 792: 172; RPMI-7951: 220.
With GSK650394 the screen read LB2518-MEL: 117; COLO 792: 41.9; RPMI-7951: 32.1.
With perifosine the screen read LB2518-MEL: 175; COLO 792: 120; RPMI-7951: 154.
With dorsomorphin the screen read LB2518-MEL: 107; COLO 792: 178; 501mel: 246; RPMI-7951: 188.
With tamatinib the screen read LB2518-MEL: 128; COLO 792: 441; RPMI-7951: 253.
With CHIR-265 the screen read LB2518-MEL: 673; COLO 792: 846; RPMI-7951: 338.
With nilotinib the screen read LB2518-MEL: 89.2; COLO 792: 74.4; RPMI-7951: 95.4.
With CP-690550 the screen read LB2518-MEL: 67.1; COLO 792: 62.2; RPMI-7951: 112.
With PF-562271 the screen read LB2518-MEL: 49.0; COLO 792: 291; RPMI-7951: 156.
With AS-252424 the screen read LB2518-MEL: 80.8; COLO 792: 58.5; 501mel: 50.2; RPMI-7951: 61.3.
With LFM-A13 the screen read LB2518-MEL: 69.7; COLO 792: 108; 501mel: 49.7; RPMI-7951: 41.8.
With BI-D1870 the screen read LB2518-MEL: 139; COLO 792: 162; 501mel: 140; RPMI-7951: 69.4.
With L-779450 the screen read LB2518-MEL: 67.1; COLO 792: 62.1; 501mel: 62.8; RPMI-7951: 34.0.
With OSI-906 the screen read LB2518-MEL: 281; COLO 792: 34.6; RPMI-7951: 72.6.
With GW9662 the screen read LB2518-MEL: 93.6; COLO 792: 96.6; 501mel: 266; RPMI-7951: 59.9.
With U73122 the screen read LB2518-MEL: 159; COLO 792: 51.6; 501mel: 154; RPMI-7951: 747.
With SNS-314 the screen read LB2518-MEL: 143; COLO 792: 424; RPMI-7951: 53.6.
With MK-1775 the screen read LB2518-MEL: 53.4; COLO 792: 298; RPMI-7951: 156.
With MK-2206 the screen read LB2518-MEL: 87.6; COLO 792: 175; RPMI-7951: 69.9.
With decitabine the screen read LB2518-MEL: 89.6; COLO 792: 135; RPMI-7951: 59.1.
With GW441756 the screen read LB2518-MEL: 110; COLO 792: 14.6; 501mel: 68.3; RPMI-7951: 115.
With AZD7762 the screen read LB2518-MEL: 293; COLO 792: 244; RPMI-7951: 180.

The first 2 entries again:

Second drug	LB2518-MEL	COLO 792	501mel	RPMI-7951
lapatinib	-	115	-	102
vorinostat	65.8	109	-	81.7